Data taken from the supplement of paper PMC8728848.
The other results are listed elsewhere or left out.

How the values were obtained:
Assay in all cases: glycan array binding signal (z-score within array); higher = stronger binding
Settings in all cases: glycan notation: IUPAC condensed, linker removed
Man(a1-2)Man(a1-3)Man = target: Man(a1-2)Man(a1-3)Man
Procedure, shortened: (§1)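 The binding signal is a Z-score computed within each array and averaged over linkers. Arrays of the same protein sequence at different concentrations or buffers were also averaged together. Data originate from 3228 arrays in the Consortium for Functional Glycomics database, kept only where the protein sequence was available.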

[1] = target: Man(a1-2)Man(a1-3)[Man(a1-2)Man(a1-6)]Man
Procedure, shortened: as §1

[2] = target: Man(a1-2)Man(a1-3)[Man(a1-2)Man(a1-6)]Man(a1-6)[Man(a1-2)Man(a1-2)Man(a1-3)]Man(b1-4)GlcNAc(b1-4)GlcNAc
Procedure, shortened: as §1

[3] = target: Man(a1-2)Man(a1-3)[Man(a1-2)Man(a1-6)]Man(a1-6)[Man(a1-3)[Man(a1-6)]Man(a1-6)]Man(b1-4)GlcNAc(b1-4)GlcNAc
Procedure, shortened: as §1

[4] = target: Man(a1-2)Man(a1-3)[Man(a1-6)]Man(a1-6)[Man(a1-2)Man(a1-3)]Man(b1-4)GlcNAc(b1-4)GlcNAc
Procedure, shortened: as §1

[5] = target: Man(a1-2)Man(a1-6)[Man(a1-3)]Man(a1-6)[Man(a1-2)Man(a1-2)Man(a1-3)]Man(b1-4)GlcNAc(b1-4)GlcNAc
Procedure, shortened: as §1

Man(a1-3)[Man(a1-6)]Man = target: Man(a1-3)[Man(a1-6)]Man
Procedure, shortened: as §1

[6] = target: Man(a1-3)[Man(a1-6)]Man(a1-6)[Man(a1-3)]Man(b1-4)GlcNAc(b1-4)GlcNAc
Procedure, shortened: as §1

[7] = target: Man(a1-3)[Man(a1-6)]Man(b1-4)GlcNAc(b1-4)GlcNAc
Procedure, shortened: as §1

Man(b1-4)GlcNAc = target: Man(b1-4)GlcNAc
Procedure, shortened: as §1

Neu5Ac(a2-3)Gal = target: Neu5Ac(a2-3)Gal
Procedure, shortened: as §1

[8] = target: Neu5Ac(a2-3)Gal(b1-3)GalNAc
Procedure, shortened: as §1

[9] = target: Neu5Ac(a2-3)Gal(b1-3)GalNAc(b1-3)Gal(a1-4)Gal(b1-4)Glc
Procedure, shortened: as §1

[10] = target: Neu5Ac(a2-3)Gal(b1-3)GalNAc(b1-3)Gal(b1-4)GlcNAc
Procedure, shortened: as §1

[11] = target: Neu5Ac(a2-3)Gal(b1-3)GalNAc(b1-4)[Neu5Ac(a2-3)]Gal(b1-4)Glc
Procedure, shortened: as §1

[12] = target: Neu5Ac(a2-3)Gal(b1-3)GalNAc6S
Procedure, shortened: as §1

[13] = target: Neu5Ac(a2-3)Gal(b1-3)GlcNAc
Procedure, shortened: as §1

[14] = target: Neu5Ac(a2-3)Gal(b1-3)GlcNAc(b1-3)Gal(b1-3)GlcNAc
Procedure, shortened: as §1

[15] = target: Neu5Ac(a2-3)Gal(b1-3)GlcNAc6S
Procedure, shortened: as §1

[16] = target: Neu5Ac(a2-3)Gal(b1-3)[Fuc(a1-4)]GlcNAc
Procedure, shortened: as §1

[17] = target: Neu5Ac(a2-3)Gal(b1-3)[Fuc(a1-4)]GlcNAc(b1-3)Gal(b1-4)[Fuc(a1-3)]GlcNAc
Procedure, shortened: as §1

[18] = target: Neu5Ac(a2-3)Gal(b1-3)[Neu5Ac(a2-3)Gal(b1-4)]GlcNAc
Procedure, shortened: as §1

[19] = target: Neu5Ac(a2-3)Gal(b1-3)[Neu5Ac(a2-6)]GalNAc
Procedure, shortened: as §1

Neu5Ac(a2-3)Gal(b1-4)Glc = target: Neu5Ac(a2-3)Gal(b1-4)Glc
Procedure, shortened: as §1

[20] = target: Neu5Ac(a2-3)Gal(b1-4)GlcNAc
Procedure, shortened: as §1

[21] = target: Neu5Ac(a2-3)Gal(b1-4)GlcNAc(b1-3)Gal(b1-3)GlcNAc
Procedure, shortened: as §1

[22] = target: Neu5Ac(a2-3)Gal(b1-4)GlcNAc(b1-3)Gal(b1-4)GlcNAc
Procedure, shortened: as §1

[23] = target: Neu5Ac(a2-3)Gal(b1-4)GlcNAc(b1-3)Gal(b1-4)GlcNAc(b1-3)Gal(b1-4)GlcNAc
Procedure, shortened: as §1

[24] = target: Neu5Ac(a2-3)Gal(b1-4)GlcNAc(b1-3)Gal(b1-4)[Fuc(a1-3)]GlcNAc
Procedure, shortened: as §1

[25] = target: Neu5Ac(a2-3)Gal(b1-4)GlcNAc(b1-6)[Gal(b1-3)]GalNAc
Procedure, shortened: as §1

[26] = target: Neu5Ac(a2-3)Gal(b1-4)GlcNAc6S
Procedure, shortened: as §1

[27] = target: Neu5Ac(a2-3)Gal(b1-4)[Fuc(a1-3)]GlcNAc
Procedure, shortened: as §1

[28] = target: Neu5Ac(a2-3)Gal(b1-4)[Fuc(a1-3)]GlcNAc(b1-3)Gal
Procedure, shortened: as §1

[29] = target: Neu5Ac(a2-3)Gal(b1-4)[Fuc(a1-3)]GlcNAc(b1-3)Gal(b1-4)GlcNAc
Procedure, shortened: as §1

[30] = target: Neu5Ac(a2-3)Gal(b1-4)[Fuc(a1-3)]GlcNAc(b1-3)Gal(b1-4)[Fuc(a1-3)]GlcNAc(b1-3)Gal(b1-4)[Fuc(a1-3)]GlcNAc
Procedure, shortened: as §1

[31] = target: Neu5Ac(a2-3)Gal(b1-4)[Fuc(a1-3)]GlcNAc6S
Procedure, shortened: as §1

[32] = target: Neu5Ac(a2-3)Gal6S(b1-4)GlcNAc
Procedure, shortened: as §1

[33] = target: Neu5Ac(a2-3)Gal6S(b1-4)[Fuc(a1-3)]GlcNAc
Procedure, shortened: as §1

B1: Fap1 (Streptococcus parasanguis) (protein)
chain: KATSKGTEEKQDSVRENLDKMISEAEVLNDMAARKLITLDAEQQLELMKSLVATQSQLEATKNLIGDPNATVADLQIAYTTLGNNTQALGNELIKLNPNGQIYAVLNNTEASRAATLRSTTTGTKTTFTISDFSNGGTQYYWAGGNANNLKNPISSISAVYDSATGKISWTVEYDPTTILKSPALKTLKTYTGIYIDTSSDSKLSTPTNVLIDGAATNPVTNFYGNGSKGIEYVSKGTTKGVTKHTITFDTAFSGRANDLADLEIKMLAATTLSDPHFYEDGSKGNYGRYNGQTAPYVIANDSGTAIGGYQVSGVNADSIPSDTT
Which results are given for B1?
glycan array binding signal (z-score) (Man(a1-2)Man(a1-3)Man): 0.189; glycan array binding signal (z-score) [1]: -0.447; glycan array binding signal (z-score) [2]: -0.857; glycan array binding signal (z-score) [3]: -0.873; glycan array binding signal (z-score) [4]: 0.055; glycan array binding signal (z-score) [5]: -0.826; glycan array binding signal (z-score) (Man(a1-3)[Man(a1-6)]Man): 0.624; glycan array binding signal (z-score) [6]: -0.797; glycan array binding signal (z-score) [7]: -0.606; glycan array binding signal (z-score) (Man(b1-4)GlcNAc): -0.682; glycan array binding signal (z-score) (Neu5Ac(a2-3)Gal): -0.511; glycan array binding signal (z-score) [8]: -0.922; glycan array binding signal (z-score) [9]: -0.606; glycan array binding signal (z-score) [10]: -0.664; glycan array binding signal (z-score) [11]: -0.683; glycan array binding signal (z-score) [12]: -0.786; glycan array binding signal (z-score) [13]: -0.518; glycan array binding signal (z-score) [14]: -0.364; glycan array binding signal (z-score) [15]: -1.03; glycan array binding signal (z-score) [16]: -0.112; glycan array binding signal (z-score) [17]: 0.579; glycan array binding signal (z-score) [18]: -0.452; glycan array binding signal (z-score) [19]: -0.209; glycan array binding signal (z-score) (Neu5Ac(a2-3)Gal(b1-4)Glc): -0.442; glycan array binding signal (z-score) [20]: -0.334; glycan array binding signal (z-score) [21]: -0.891; glycan array binding signal (z-score) [22]: -0.877; glycan array binding signal (z-score) [23]: -0.41; glycan array binding signal (z-score) [24]: -0.496; glycan array binding signal (z-score) [25]: -0.71; glycan array binding signal (z-score) [26]: -0.707; glycan array binding signal (z-score) [27]: 0.242; glycan array binding signal (z-score) [28]: -0.644; glycan array binding signal (z-score) [29]: 0.435; glycan array binding signal (z-score) [30]: -0.013; glycan array binding signal (z-score) [31]: -0.257; glycan array binding signal (z-score) [32]: 0.327; glycan array binding signal (z-score) [33]: -0.795
